# Test results from PubChem BioAssay AID445 (National Center for Advancing Translational Sciences (NCATS), 2006).
# This is one part of the list. Shown are side measurements of this screen, not its main read-out; they come without a call. Most of these compounds were active or inconclusive in the main read-out, so they are no random draw. The note in brackets gives the kind of curve behind each potency; many fits are weak.
# Experiment: IkB Signaling
# Conditions: ABC-DLBCL IkBa-CBG/CBR dual luciferase ratio (green luciferase fused to IkBa over red control in OCI-Ly3 lymphoma cells), 4 h
# Text: NIH Molecular Libraries Screening Centers Network [MLSCN]
# NIH Chemical Genomics Center [NCGC]
# Nuclear factor kappa-B (NF-kappa-B) plays an important role in normal B cell development and survival. Diffuse large B cell lymphoma (DLBCL) is the most commonly observed type of non-Hodgkin's lymphoma. Gene expression analysis has identified an activated B cell-like subtype of DLBCL (ABC-DLBCL) which expresses known NF-kappa-B target genes. […] However, targets upstream of IKK have been largely unexplored and so nodes upstream of IKK in the NF-kappa-B pathway remain untested due to the lack of chemical probes.
# A cell-sensor assay for I-kappa-B-alpha stabilization was developed with NIH investigator Dr. R. Eric Davis in Dr. Louis M. Staudt's laboratory. The assay uses green (CBG68) and red (CBR) emitting beetle luciferases [Chroma-Glo(TM) developed by Promega Corp.] where the green luciferase is fused to I-kappa-B-alpha and the red luciferase is present in its native state. Both luciferase genes are stably present in the OCI-Ly3 human ABC DLBCL cell line, but their expression is under the control of tetracycline-inducible promoters. Following the addition of doxycycline to induce expression of the luciferases, the green luminescence in control cultures rises only slowly because the CBG fusion partner I-kappa-B-alpha is targeted by IKK activity for rapid degradation. In contrast, green luminescence rises rapidly in the presence of proteasome inhibitors or IKK inhibitors. The rise in red luminescence of CBR is not affected by proteasome or IKK inhibitors, and serves as normalization for cell number and nonspecific effects. Compounds were screened as a concentration-titration series that ranged from 57 uM to 0.7 nM.
# NCGC Assay Protocol Summary:
# Cells were seeded in 1536-well plates at 5000 cells/3ul in IMDM medium containing 0.5% FBS, w/o phenol red, L-glutamine, 25 mM HEPES, 3 mg/ml sodium bicarbonate. After centrifugation for 1 min. at 1000 rpm, 23 nl of compounds or DMSO were delivered to each well using a pin tool. Then 1ul 80ng/ml doxycycline was dispensed into white solid 1536-well plates and the plates were incubated at 37C/5% C02 in a cell incubator for 4 hrs. Then 4 ul Chroma-Glo luminescent substrate mix (Promega) was added to each well. The plate was incubated at R.T. for 10-15 min. The plates were measured on a ViewLux plate reader for green luminescence (540/20 nm filter) and red luminescence (618/8 nm filter). The green and red luminescent signals were corrected for red and green luminescence filter overlap using previously determined filter calibration constants (determined using the procedure outlined in the Promega Technical Manual). The %Activity was determined from the ratio of corrected green/red luminescent values. Green luminescent and ratio %Activity was determined by normalizing to the difference in signal between basal cells (0% Activity) and cells incubated with 10 uM of the proteasome inhibitor MG-132 (100% Activity). Red luminescent %Activity was normalized to the difference between red luminesence in basal cells (0%Activity) and zero luminescence (-100% Activity).
# Concentration-response curves were fitted to the signals arising from the green luminescence (I-kappa-B-alpha-luciferase fusion; IkB-luc) and the red luminescence (unfused luciferase; luc) as well as the calculated ratio. The concentration-effect curves were then classified based on curve quality (r2), response magnitude and degree of measured activity. Compounds were then categorized based on their concentration-response curves for all three datasets (Ikb-luc, luc and ratio).
# Keywords: IKK, I-kappa-B, IkB, IkBa, cytotoxicity, luminescence, MLSMR, MLSCN, NIH Roadmap, qHTS, NCGC
# [1] = measured here: control luc red channel unless noted
# [2] = measured here: IkB-luc green channel
# [3] = measured here: control luc red channel
smiles,measurement,setting,value
O=C(CSc1nnc2c(Cl)cc(C(F)(F)F)cn12)Nc1ccc2c(c1)OCO2,AC50,[1],"25.1 µM [falling, single point]"
COc1cccc(C(=O)Nc2ccc(N(C)C)cc2)c1OC,AC50,[1],"20 µM [falling, single point]"
CCOC(=O)c1c(NC(=O)c2ccc(S(=O)(=O)N(CC(C)C)CC(C)C)cc2)sc2c1CCN(CC)C2,AC50,[1],"7.94 µM [falling, full curve, poor fit]"
CCOC(=O)N1CCc2c(sc(NCc3cccs3)c2C(=O)Nc2cc(Cl)ccc2OC)C1,AC50,[1],"5.01 µM [falling, partial curve, poor fit]"
COc1cccc(-c2ccc3ncnc(NCCc4c[nH]c5ccc(OC)cc45)c3c2)c1,AC50,[1],"3.98 µM [falling, single point] [measured here: IkB-luc green channel]"
COc1ccccc1N1CCN(C(=O)c2ccc3c(c2)N(Cc2cc(C)ccc2C)C(=O)c2ccccc2S3(=O)=O)CC1,AC50,[1],"1.26 µM [falling, full curve, poor fit]"
COc1ccccc1CN(Cc1nc2ccccc2c(=O)[nH]1)C(=O)Nc1ccccc1,AC50,[2],"15.8 µM [falling, partial curve]"
same,AC50,[3],"12.6 µM [falling, partial curve]"
CC(=O)N(CN1C(=O)c2ccccc2C1=O)c1ccccc1,AC50,[1],"6.31 µM [falling, single point]"
CC(=O)c1cccc(NC(=O)[C@H](Cc2ccccc2)N2Cc3ccccc3C2=O)c1,AC50,[1],"20 µM [falling, single point]"
O=C(Nc1nc2c(s1)CCCC2)c1ccc(Br)o1,AC50,[1],"7.94 µM [falling, full curve]"
COc1ccccc1C(=O)NCCSc1c(C)[nH]c2ccccc12,AC50,[1],"12.6 µM [falling, partial curve]"
COc1cccc(NC(=O)CSc2nc(=O)n(Cc3ccccn3)c3c2CCC3)c1,AC50,[1],"15.8 µM [falling, partial curve]"
COc1ccc(CCNC(=O)c2ccc3c(c2)N=C(C)c2cc(C)ccc2S3)cc1OC,AC50,[1],"25.1 µM [falling, single point]"
CCc1ccc(NC(=O)Cn2c(=O)c(CNc3ccccc3)cc3cc(OC)c(OC)cc32)cc1,AC50,[1],"3.98 µM [falling, full curve]"
COc1ccc(-c2nc3ccccc3o2)cc1NC(=O)C(C)(C)Oc1ccc(Br)cc1,AC50,[1],"10 µM [rising, partial curve]"
Cc1nn(-c2ccccc2)c(OC(=O)c2ccccc2Cl)c1S(=O)(=O)c1ccccc1,AC50,[1],"1.58 µM [falling, full curve]"
Cc1nnc(NC(=O)CCC(=O)NCc2ccco2)s1,AC50,[1],"12.6 µM [falling, partial curve]"
CCOc1ccc(NC(=O)CSC2=Nc3ccccc3C3=NC(CCC(=O)NCc4cccs4)C(=O)N23)cc1 (stereo unspecified),AC50,[1],"1.26 µM [falling, partial curve, poor fit]"
CCc1nn2c(=O)cc(COC(=O)c3ccccc3NC(=O)COc3ccc(F)cc3)nc2s1,AC50,[1],"3.98 µM [falling, partial curve]"
CCOC(=O)c1[nH]c(C)c(CCC(=O)Nc2cccc(C(F)(F)F)c2)c1C,AC50,[1],"2 µM [falling, partial curve]"
O=C(Nc1ccccc1C(F)(F)F)c1cc(-c2ccc(O)cc2)on1,AC50,[1],"20 µM [falling, partial curve]"
COc1ccc(C)cc1NC(=O)CN1C(=O)COc2ccc(S(=O)(=O)N3CCOCC3)cc21,AC50,[1],"1 µM [falling, single point]"
Cc1ccc(NC(=O)COc2ccc(-c3nn(C)c(=O)c4ccccc34)cc2)cc1,AC50,[1],"20 µM [falling, partial curve]"
CCOC(=O)c1cccc(NC(=O)c2cc3cc4cc(OC)ccc4nc3s2)c1,AC50,[1],"31.6 µM [falling, single point]"
Cn1c(=O)[nH]c(=O)c2c1nc(Br)n2CCCCSc1nc2ccccc2o1,AC50,[1],"10 µM [falling, partial curve]"
CN(C)c1ccc(CNC(=O)C2CCCN(S(=O)(=O)c3ccc4c(ccn4C)c3)C2)cc1 (stereo unspecified),AC50,[1],"0.00794 µM [falling, full curve, poor fit]"
Clc1ccc(N2CCN(Cc3c[nH]c4ncccc34)CC2)cc1,AC50,[2],"0.631 µM [rising, partial curve, poor fit]"
same,AC50,[3],"5.01 µM [rising, partial curve]"
CCCCn1c(NC(=O)c2ccccc2Cl)c(C#N)c2nc3ccccc3nc21,AC50,[1],"10 µM [falling, partial curve]"
Cc1csc(NC(=O)CSc2ncnc3c2cnn3-c2ccccc2Cl)n1,AC50,[1],"25.1 µM [falling, partial curve]"

# Random excerpt: 2 records from the list
smiles,measurement,setting,value
Cn1c(=O)[nH]c(=O)c2c1nc(Br)n2CCCCSc1nc2ccccc2o1,AC50,[1],"10 µM [falling, partial curve]"
CCc1nn2c(=O)cc(COC(=O)c3ccccc3NC(=O)COc3ccc(F)cc3)nc2s1,AC50,[1],"3.98 µM [falling, partial curve]"
